Values from PubChem BioAssay AID504808 (Drosophila RNAi Screening Center, 2011).
Aim: 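Chromatin factors that keep E2F targets switched off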 (primary screen). Cells: Drosophila S2 cells. Reagent: long dsRNA against Drosophila genes. Detection: 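Firefly luciferase driven by E2F sites, normalised to Renilla luciferase on the same minimal promoter, measured by plate reader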. Reading the numbers: E2F firefly: higher = more E2F reporter activity; Renilla normaliser: higher = more normaliser reporter signal. Call rule: 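a knock-down counted as active when the firefly/Renilla E2F signal rose above 50%, a threshold chosen arbitrarily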.
In all, the deposit lists about 21,000 reagents; this is a random part of those that have a named target and a result. Over the whole deposit, 18 (0.084%) got an active call. 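Raw counts without plate normalisation, one of two replicates; the ratio scores behind the calls were not deposited.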 Unmarked entries are inactive. Reagent sequences are not shown. Not stated in the record: the amount of reagent, the time to read-out.

no.	gene	amplicon	E2F firefly, rep 1	Renilla normaliser, rep 1
1	CG7882	DRSC04899	1.12e5	4749
2	CG6443	DRSC02958	75109	3236
3	CG4629	DRSC00659	1.69e5	5915
4	lmd	DRSC15618	70524	3496
5	ND-B14.7	DRSC04544	94792	4305
6	how	DRSC16966	1.09e5	7207
7	Fbp1	DRSC11166	1.84e5	6582
8	TyrRS-m	DRSC04286	89341	184
9	Sry-delta	DRSC16869	1472	824
10	a10	DRSC11319	1.32e5	5569
11	mira	DRSC16998	65608	3158
12	E(spl)mbeta-HLH	DRSC16697	1904	980
13	Osi22	DRSC16442	1.20e5	6184
14	CG6891	DRSC20016	1.61e5	6601
15	Ir51b	DRSC05540	1.33e5	5576
16	CG10102 (retired record)	DRSC05963	91347	4151
17	Vps39	DRSC16205	77399	4173
18	CG31717	DRSC01121	1.35e5	6593
19	eIF2D	DRSC13916	82293	2760
20	CG31638	DRSC02269	1.57e5	5523
21	CG31638	DRSC03259	1.56e5	4997
22	mus301	DRSC10939	89419	3697
23	Asator	DRSC17136	67147	4448
24	tea	DRSC06110	2549	196
25	tea	DRSC06236	1.48e5	5222
26	Mpcp1	DRSC07337	1.59e5	5761
27	Spindly	DRSC00430	1.61e5	5362
28	CG6345	DRSC16024	1.45e5	6312
29	LSm1	DRSC04458	1.01e5	3944
30	Leash	DRSC15617	1.40e5	5958
31	CG31816	DRSC01547	1.42e5	5716
32	CG7126	DRSC16201	1.33e5	7531
33	CG10339	DRSC04065	1.34e5	5184
34	CG16710	DRSC15136	1.03e5	6081
35	CG34436	DRSC15164	1.29e5	7585
36	ash2	DRSC16902	66719	4193
37	CG13085	DRSC02189	1.09e5	5148
38	CG34106	DRSC01578	1.46e5	5879
39	CG13855	DRSC14705	1.35e5	6865
40	l(3)psg2	DRSC10484	75895	3959
41	Prx2	DRSC20256	1.18e5	7303
42	CG5131	DRSC02817	1.03e5	4416
43	CG12241	DRSC14481	63256	3194
44	CG34015	DRSC19140	84015	2626
45	Kcmf1	DRSC14459	57125	3545
46	bcn92	DRSC18741	77615	4813
47	CSN6	DRSC16593	82934	5371
48	ND-51L2	DRSC07080	98382	4197
49	CG3792	DRSC02725	1.39e5	4951
50	Tom40	DRSC18796	34293	2717
51	MED20	DRSC03463	1.15e5	4851
52	Mst98Ca	DRSC16749	1704	976
53	CG5262	DRSC11773	70340	3314
54	DIP-beta	DRSC20461	80240	2493
55	DIP-beta	DRSC20489	1.33e5	6301
56	DIP-beta	DRSC20490	1.41e5	5516
57	DIP-beta	DRSC20505	1.30e5	6913

In a second layout: 9 of the entries above.
| gene | amplicon | E2F firefly, rep 1 | Renilla normaliser, rep 1 |
| --- | --- | --- | --- |
| CG6345 | DRSC16024 | 1.45e5 | 6312 |
| LSm1 | DRSC04458 | 1.01e5 | 3944 |
| Leash | DRSC15617 | 1.40e5 | 5958 |
| CG31816 | DRSC01547 | 1.42e5 | 5716 |
| CG7126 | DRSC16201 | 1.33e5 | 7531 |
| CG10339 | DRSC04065 | 1.34e5 | 5184 |
| CG16710 | DRSC15136 | 1.03e5 | 6081 |
| CG34436 | DRSC15164 | 1.29e5 | 7585 |
| ash2 | DRSC16902 | 66719 | 4193 |
